In patent US20250127906A1, “SMALL-MOLECULE DEGRADERS OF CDK8 AND CDK19” (University of South Carolina, priority 2021, published 2025):
At least one structure is not confirmed: it was looked up by name or label, or the drawing left a doubt.

Amino acid sequences for entries named in this document (tags omitted). A change or cut given only in a name is not applied to a line headed by its entry.
UniProt P49336: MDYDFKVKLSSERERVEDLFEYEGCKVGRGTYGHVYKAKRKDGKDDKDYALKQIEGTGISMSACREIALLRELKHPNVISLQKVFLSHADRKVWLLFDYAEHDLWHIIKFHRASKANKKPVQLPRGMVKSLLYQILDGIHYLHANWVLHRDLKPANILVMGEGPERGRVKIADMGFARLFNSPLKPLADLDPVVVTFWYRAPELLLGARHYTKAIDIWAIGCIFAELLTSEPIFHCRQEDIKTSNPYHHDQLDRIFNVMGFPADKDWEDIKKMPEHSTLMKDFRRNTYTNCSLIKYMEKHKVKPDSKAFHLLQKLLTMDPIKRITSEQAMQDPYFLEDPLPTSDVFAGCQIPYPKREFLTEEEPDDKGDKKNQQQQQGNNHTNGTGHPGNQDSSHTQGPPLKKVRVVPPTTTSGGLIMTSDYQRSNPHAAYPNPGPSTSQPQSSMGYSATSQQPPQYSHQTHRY
UniProt Q9BWU1: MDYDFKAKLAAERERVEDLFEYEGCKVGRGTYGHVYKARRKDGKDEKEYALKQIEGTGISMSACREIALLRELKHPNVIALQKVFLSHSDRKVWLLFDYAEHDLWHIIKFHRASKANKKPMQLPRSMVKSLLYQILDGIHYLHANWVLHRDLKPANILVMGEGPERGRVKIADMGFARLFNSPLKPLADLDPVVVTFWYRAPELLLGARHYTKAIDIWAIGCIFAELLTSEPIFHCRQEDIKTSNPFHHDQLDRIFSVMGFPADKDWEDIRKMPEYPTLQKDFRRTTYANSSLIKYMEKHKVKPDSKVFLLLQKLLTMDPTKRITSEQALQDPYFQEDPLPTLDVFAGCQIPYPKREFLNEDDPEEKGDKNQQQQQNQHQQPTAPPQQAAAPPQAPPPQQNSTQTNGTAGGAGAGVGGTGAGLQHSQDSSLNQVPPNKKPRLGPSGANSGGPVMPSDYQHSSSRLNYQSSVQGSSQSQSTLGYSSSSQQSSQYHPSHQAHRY

Columns and labels:
Format in all cases: cell-based
CDK8 [1] = target: T1, CDK8 (Homo sapiens, UniProt P49336); experiment: CDK8 degradation in HEK-293 cells (Western blot, normalized by GAPDH); parameters: endogenous in cells; host or cells: HEK-293
Method: Table 1 presents the structures of 35 different chimeras that have been synthesized, together with their effects (at 1 μM or 0.3 μM concentrations) on CDK8 degradation in HEK-293 cells. The synthesis schemes of all the compounds are described below. CDK8 degradation was measured by Western blot analysis of RIPA lysates of HEK-293cells treated with or without the test compound for 24 hours, using antibodies against CDK8 (Santa Cruz sc-1521) and housekeeping protein GAPDH (Santa Cruz sc-32233) (loading control) Protein bands on immunoblotted PVDF membranes were visualized with Western Lighting Plus ECL detection reagent (Perkin Elmer, Waltham, MA, USA) using ChemiDoc Touch™ (Bio-Rad). Image processing and densitometry analysis were performed using ImageLab software (Bio-Rad) to quantify the CDK8 protein levels (normalized by GAPDH) and evaluate the effects of compound treatment.
(§1) FIGS. 2F and 2G show the effects of different concentrations of potent Senexin C- and BI-1347-based PROTACs on CDK8 and CDK19 degradation in HEK-293cells. Based on these assays, we calculated DC50 values that correspond to PROTAC concentrations inducing degradation of CDK8 and CDK19 to the half of protein level in untreated cells. The corresponding CDK8 DC50 values were 46 nM for IA7843, 6.6 nM for IA7882 and 2.8 nM for IA7886, and CDK19 DC50 values were 1 μM for IA7843, 25 nM for IA7882 and 10 nM for IA7886.

CDK19 [2] = target: T2, CDK19 (Homo sapiens, UniProt Q9BWU1); experiment: CDK19 degradation in Loucy T-cell leukemia cells lacking Cyclin C; parameters: endogenous in cells; host or cells: Loucy; conditions: Loucy cells (lacking CCNC), 24 hr treatment
Text: (§2) This cell line, however, is unique in lacking Cyclin C (CCNC), the binding partner of CDK8/19. To test if the absence of CDK8-bound CCNC was responsible for the loss of IA7843 CDK8-degrading activity, we have tested the effect of IA7843 on a derivative of HEK-293cells with CRISPR-mediated knockout of CCNC.

CDK19 [3] = target: T2, CDK19; experiment: CDK19 degradation in HEK-293 cells (Western blot); parameters: PROTACs on CDK8 and CDK19 degradation in HEK-293cells; endogenous in cells; host or cells: HEK-293
Text: Furthermore, the degradation of both CDK8 and CDK19 by the PROTACs is also seen to decrease the levels of their binding partner cyclin C (CCNC) (FIG. 2B, D, E), which is known to be protected from proteolytic degradation by its interaction with CDK8 (Barette et al., 2001).
as §1

SK-MM-2 cells = experiment: SK-MM-2 multiple myeloma cell growth over 20 days continuous treatment; conditions: BI1347 200 nM, Senexin C 1 μM, IA7886 200 nM, IA7843 1 μM
Method: The following CDK8/19 kinase inhibitors were tested for their effects on MM cell lines over 20 days continuous treatment: CDK8/19 kinase inhibitors BI1347 (200 nM) and Senexin C (1 μM), BI1347-derived PROTAC IA7886 (200 nM) and Senexin C-derived PROTAC IA7843 (1 μM). 1-4 million cells were treated with vehicle control (0.1% DMSO), or CDK8/19 kinase inhibitors or PROTACs for 20 days. Every 4 days, cells were counted using BioRAD TC20 Automated Cell Counter with trypan blue staining, and the same number of cells were passaged to a new T25 flask to propagate under the same treatment conditions.

CDK19 [4] = target: T2, CDK19; experiment: CDK19 degradation in other human cell lines (22Rv1, MV4-11, HAP-1, HTB-185, SAOS2, SJSA-1); parameters: endogenous in cells; conditions: 24-hr treatment
Text: (§3) FIG. 5 illustrates the effects of the novel PROTACs HP8580, IA7843 and IA7886 on CDK8 and CDK19 degradation in other human cell lines, including 22Rv1 prostate cancer (expressing more CDK19 than CDK8), MV4-11 (AML) and HAP-1 (CML) leukemia cell lines, HTB-185 medulloblastoma, and SAOS2 and SJSA-1 osteosarcoma (the latter expressing only CDK19 but not CDK8).

CDK19 [5] = target: T2, CDK19; experiment: CDK19 degradation in HEK-293 cells with CRISPR knockout of CCNC; parameters: a derivative of HEK-293cells with CRISPR-mediated knockout of CCNC; endogenous in cells; host or cells: HEK-293 with CRISPR knockout of CCNC; conditions: HEK-293 CCNC-knockout cells, 24 hr treatment
Text: as §2

CDK8 [6] = target: T1, CDK8; experiment: CDK8 degradation in Loucy T-cell leukemia cells lacking Cyclin C; parameters: endogenous in cells; host or cells: Loucy; conditions: Loucy cells (lacking CCNC), 24 hr treatment
Text: as §2

CDK8 [7] = target: T1, CDK8; experiment: CDK8 degradation in other human cell lines (22Rv1, MV4-11, HAP-1, HTB-185, SAOS2, SJSA-1); parameters: endogenous in cells; conditions: 24-hr treatment
Text: as §3

CDK8 [8] = target: T1, CDK8; experiment: CDK8 degradation in HEK-293 cells with CRISPR knockout of CCNC; parameters: a derivative of HEK-293cells with CRISPR-mediated knockout of CCNC; endogenous in cells; host or cells: HEK-293 with CRISPR knockout of CCNC; conditions: HEK-293 CCNC-knockout cells, 24 hr treatment
Text: as §2

N#Cc1ccc2nccc(NCCc3ccc4cc(C(=O)N5CCN(C(=O)CCCCCCCCCCNC(=O)CCCNc6cccc7c6C(=O)N(C6CCC(=O)NC6=O)C7=O)CC5)ccc4c3)c2c1 (stereo not drawn) [IA7843]
CDK8 degradation (in words) (CDK8 [1]): efficiently degraded CDK8 and CDK19 in the wild-type HEK-293cells | CDK19 degradation (in words) (CDK19 [2]): only very weak degradation of CDK8 and CDK19 | CDK19 degradation (in words) (CDK19 [3]): efficiently degraded CDK8 and CDK19 in the wild-type HEK-293cells | growth inhibition over 20 days, order of efficacy (SK-MM-2 cells): BI1347<IA7886<Senexin C<IA7843 | CDK19 degradation (in words) (CDK19 [4]): significantly degraded CDK8 and CDK19 in all the tested cell lines | CDK19 degradation (in words) (CDK19 [5]): ineffective in the CCNC-deficient derivative | CDK8 degradation (in words) (CDK8 [6]): only very weak degradation of CDK8 and CDK19 | CDK8 degradation (in words) (CDK8 [7]): significantly degraded CDK8 and CDK19 in all the tested cell lines | CDK8 degradation (in words) (CDK8 [8]): ineffective in the CCNC-deficient derivative
